# Data published in PubChem BioAssay AID504444 (National Center for Advancing Translational Sciences (NCATS), 2011).
# Several values for one entry are separate records, joined by “and”; a condition that tells them apart may be missing. Equal entries are not always repeated. Screen size: about 360,000 compounds; about 7,500 (2.1%) were called active. This list was built around the results that the source calls inconclusive (neither active nor inactive); the mix of calls is not that of the screen. Calls come from the whole dose curve; as a rule, active = well fitted inhibition curve with a large enough effect; inconclusive = small, poorly fitted or top-dose-only effect, or effect the other way; inactive = flat fitted curve, though single readings scatter. A potency beside an inconclusive call is a rough fit, not a confirmed value.
# Test: Nrf2 qHTS screen for inhibitors; note: nearly all actives have a fitted effect of over 60% in size
# Settings: A549 ARE-Fluc reporter, luciferase luminescence, 18-24 h; activity change, negative = inhibition: at 46 µM (top of the series)
# Method in brief: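 Nrf2 activity is the BugLite luminescence, read 15 min after reagent at room temperature, following CellTiter-Fluor cytotoxicity readout (30 min, 37C). Compound titrations were applied for 18-24 h to 5000 A549 ARE_Fluc cells/well in 5% FBS OPTI-MEM.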
# % is set by controls: 0 for no effect and ±100 for the full control effect; potency is the fitted concentration of half-maximal effect.
Compound,Potency,"activity change, negative = inhibition"
CCC(C)NC(=O)CCC(=O)OC1O[C@H]2OC3(C)CC[C@H]4[C@H](C)CCC(C1C)C24OO3 (stereo partly drawn),"inconclusive: 1.3 µM [falling, full curve, poor fit]",
CCC1(CC)C(=O)NC(=O)N(CCc2ccccn2)C1=O,"inconclusive: 16.4 µM [falling, partial curve, poor fit]",
O=C(CSC1c2ccccc2-c2ccccc21)N/N=C/c1ccccc1O,active: 5.17 µM,
O=S(=O)(c1ccc(Cl)cc1)N1CCC(n2cnc3cc(C(F)(F)F)ccc32)CC1,"inconclusive: 32.6 µM [falling, single point]",
COCCCn1c(N)c(C(=O)Nc2sc3c(c2C(=O)OC)CCCC3)c2nc3ccccc3nc21,,inactive: 0.3%
C[C@]12CC[C@H](O)C[C@H]1CC[C@@H]1[C@@H]2C[C@@H](O)[C@]2(C)[C@@H](C3=CC(=O)OC3)CC[C@]12O,active: 0.461 µM,
CC/C(=C\C=C\[C@@H]1C=C[C@@H]2CCC[C@H]2[C@@H]1C(=O)c1ccc[nH]1)[C@@H]1O[C@@H]([C@@H](C)C(=O)O)CC[C@@H]1C,"inconclusive: 29.1 µM [falling, single point]",
N#Cc1c(Cl)nc(Cl)c2c1CCN(Cc1ccccc1)C2,,inactive: -7.51%
COc1ccc(NC(=O)Cn2c3ccccc3c3nc4n(c(=O)c32)CCS4)cc1,"inconclusive: 16.4 µM [falling, single point]",
COc1ccc(CC(=O)C2C(=O)N(C)c3ccccc32)cc1OC (stereo not drawn),"inconclusive: 32.6 µM [falling, single point]",
c1cc2c(cc1CCNC1CCCCCC1)OCO2,,inactive: 9.17%
Cn1cnc([N+](=O)[O-])c1Sc1ccc([N+](=O)[O-])cc1,active: 9.2 µM,
Cc1ccccc1-n1c(O)c(/C=C2/C(c3ccccc3)=Nc3ccccc32)c(=O)[nH]c1=O,"inconclusive: 18.4 µM [falling, partial curve, poor fit]",
O=c1c2ccccc2nc(/C=C\c2ccccc2[N+](=O)[O-])n1-c1ccccc1O,"inconclusive: 16.4 µM [falling, partial curve]",
Clc1ccc2c(c1)C(c1ccccc1Cl)=NCc1nnc(N3CCN(CCSc4ccccc4)CC3)n1-2,"inconclusive: 29.1 µM [falling, single point]",
O=C(N/N=C/c1c(O)n(C2CCCCC2)c(=S)[nH]c1=O)c1ccccc1,"inconclusive: 10.3 µM [activator, partial curve]",
CC(C)CCn1c(=O)c(C(=O)NCc2ccc3c(c2)OCO3)c(O)c2ccccc21,"inconclusive: 29.1 µM [falling, single point]",
CCOC(=O)[C@]12Cc3cc(OC)ccc3[C@H]1N(Cc1ccccc1)C(=O)c1ccccc12,"inconclusive: 20.6 µM [falling, single point]",
Cc1ccc2c(c1)c(=O)c1c3n2CCN(CC2CO2)C3CC1 (stereo not drawn),"inconclusive: 29.1 µM [activator, single point]",
O=C(Nc1ccc2ccccc2c1)N1C[C@H]2C[C@@H](C1)c1cccc(=O)n1C2,"inconclusive: 0.0041 µM [falling, full curve, poor fit]",
Cc1cc(OCC(=O)N[C@H](C(=O)O)c2ccccc2)c2c3c(c(=O)oc2c1)CCC3,,inactive: 7.36%

Compound,Potency,"activity change, negative = inhibition"
Cc1nn(CC(C)C)c(Cl)c1C(=O)NC1CCCCC1,"inconclusive: 4.11 µM [activator, full curve]",
COc1ccc(CCNC(=O)c2ccc3c(c2)CCN3S(=O)(=O)c2ccc(C)cc2)cc1OC,"inconclusive: 32.6 µM [falling, single point]",
Cc1ccc(Cl)cc1N1CCN(C(=O)c2cn(C)c(=O)c3c2c2ccccc2n3C)CC1,"inconclusive: 20.6 µM [falling, single point]",
Cc1ccc(-c2nc(CN3C(=O)CN=C(c4ccccc4Cl)c4cc(Cl)ccc43)c(C)o2)cc1,"inconclusive: 29.1 µM [falling, single point]",
Cc1cc(N2CCOCC2)ccc1/C=C1\C(=O)NC(=O)N(c2ccccc2)C1=O,"inconclusive: 6.51 µM [falling, single point]",
CCc1ccc(CN2CCN(Cc3ccc(SC)cc3)CC2)cc1,"inconclusive: 18.4 µM [falling, single point]",
Cc1cc(C)cc(N2C(=O)NC(=O)/C(=C\C=C\c3ccco3)C2=O)c1,"inconclusive: 29.1 µM [falling, single point]",
Cc1ccc(C(=O)Nc2nc3ccccc3n2CCN2CCCC2)cc1,"inconclusive: 25.9 µM [activator, partial curve]",
NC(Cc1ccccc1)c1nc2ccccc2[nH]1 (stereo not drawn),,inactive: 1.4%
CN1C(=O)/C(=C\c2ccc(Br)s2)C(=O)NC1=S,,inactive: -7.01%
CCOC(=O)C1=C(CN2CCN(c3ccc(C)cc3C)CC2)NC(=O)NC1c1ccc(OC)cc1 (stereo not drawn),active: 14.6 µM,
CCCCn1c(O)c(C(C)=NCCc2c[nH]c3ccccc23)c(=O)[nH]c1=O,"inconclusive: 29.1 µM [falling, single point]",
Cc1cc2ccccn2c1C(C[N+](=O)[O-])c1c(F)cccc1Cl (stereo not drawn),"inconclusive: 7.31 µM [falling, partial curve]",
CCC(=NCc1ccco1)c1c(O)n(Cc2ccccc2)c(=O)[nH]c1=O,"inconclusive: 29.1 µM [falling, single point]",
COc1ccc(OC(=O)Nc2ccccc2)cc1,"inconclusive: 2.06 µM [activator, full curve]",
Fc1ccc(C(OCCN2CCCC2)c2ccc(Br)cc2)cc1 (stereo not drawn),,inactive: 4.72%
CC1CN(CC(=O)c2ccccc2Cl)CC(C)O1 (stereo not drawn),"inconclusive: 1.84 µM [activator, full curve, poor fit]",
CN1CN(c2ccccc2)C2(CCN(CCCSc3ccccc3NC(=O)/C=C/c3ccccc3)CC2)C1=O,"inconclusive: 18.4 µM [falling, single point]",
CCC(=Nc1ccc2c(c1)CCC2)c1c(O)n(-c2ccc(OC)cc2)c(=O)[nH]c1=O,"inconclusive: 32.6 µM [falling, single point]",
CC(C)(C)c1ccc(CN2C(=O)CN=C(c3ccccc3)c3ccccc32)cc1,"inconclusive: 29.1 µM [falling, single point]",
O=C1N[C@H](Cc2ccccc2)C(=O)N2[C@@H]3[C@H](C[C@@H]12)c1ccccc1N3OOSc1ccccc1,"inconclusive: 10.3 µM [falling, partial curve, poor fit]",

Compound,Potency,"activity change, negative = inhibition"
C=CCn1c(O)c(C(CC)=NCCc2c[nH]c3ccccc23)c(=O)[nH]c1=O,"inconclusive: 29.1 µM [activator, single point]",
O=C(c1ccccc1)C(CN1CCCC1)c1ccccc1 (stereo not drawn),"inconclusive: 25.9 µM [falling, partial curve, poor fit]",
CCOP(=O)(OCC)C(NC(=O)c1ccccc1Cl)=C(Cl)Cl,"inconclusive: 13 µM [activator, partial curve, poor fit]",
CNC(=S)N(C)CCc1cc2c(c(OC)c1/C=C1/C(=O)NC(=O)N(C)C1=O)OCO2,"inconclusive: 18.4 µM [falling, single point]",
CCn1ccnc1CN1CCCC(C(=O)c2cc(Cl)ccc2OC)C1 (stereo not drawn),"inconclusive: 9.2 µM [falling, partial curve, poor fit]",
CCOc1ccc(CN(CCc2ccc3c(c2)OCO3)Cc2ccc(OC)c(Br)c2)cc1,,inactive: 13.1%
C=CCn1c(O)c(C(C)=Nc2ccc(N(C)C)cc2)c(=O)[nH]c1=O,"inconclusive: 18.4 µM [falling, partial curve, poor fit]",
Cc1ccc(C(=O)Nc2c(C(=O)Nc3ccc(C)c(C)c3)sc3nc(C)cc(C)c23)cc1,"inconclusive: 11.6 µM [activator, partial curve]",
O=C(CSC1c2ccccc2-c2ccccc21)N/N=C/c1ccccc1,"inconclusive: 18.4 µM [falling, partial curve]",
COc1cccc(-c2cc(C(=O)Nc3cnn(Cc4ccc(Cl)cc4Cl)c3)no2)c1,"inconclusive: 16.4 µM [falling, single point]",
O=C(CCl)NN=C(c1ccccc1)c1ccccc1,"inconclusive: 20.6 µM [activator, partial curve, poor fit]",
COc1ccc(NC(=O)c2cn(CCC#N)nc2-c2ccccc2)cc1,,inactive: -18.5%
O=C1NC(=O)C(=Cc2cccc(OCCOc3ccccc3)c2)C(=O)N1,"inconclusive: 3.66 µM [activator, partial curve]",
CC1=C/C(=N\NC(=S)NCCc2ccccc2)CC(C)(C)C1,"inconclusive: 16.4 µM [activator, single point]",
NC(=O)c1cn(C2OC(CO)C(O)C2O)c2ncnc(N)c12 (stereo not drawn),active: 259 nM and active: 461 nM,
COP(=O)(OC)C(Nc1ccccn1)c1ccccc1 (stereo not drawn),"inconclusive: 3.66 µM [falling, single point]",
CC(C)(C)C(=O)OCC12CCC(O1)C1(C)C(=O)OCC21 (stereo not drawn),,inactive: -2.32%
CCC[C@H](N[C@@H](CCC)[C@H](O)c1ccccc1)[C@H](O)c1ccccc1,"inconclusive: 29.1 µM [activator, single point]",
O=C1CN=C(c2ccccc2Cl)c2cc(Br)ccc2N1,"inconclusive: 5.17 µM [activator, partial curve]",
O=C(Oc1ccc2ccc(OC(=O)N3CCCCCC3)cc2c1)N1CCCCCC1,"inconclusive: 29.1 µM [falling, single point]",
Cc1c(N=Nc2c(O)n(Cc3ccccc3)c(=O)[nH]c2=O)c(=O)n(-c2ccccc2)n1C,active: 5.17 µM,

# Arranged by number of heavy atoms (ascending): part of the list above
Compound,Potency,"activity change, negative = inhibition"
CC(C)(C)C(=O)OCC12CCC(O1)C1(C)C(=O)OCC21 (stereo not drawn),,inactive: -2.32%
COc1ccc(NC(=O)c2cn(CCC#N)nc2-c2ccccc2)cc1,,inactive: -18.5%
O=C(Oc1ccc2ccc(OC(=O)N3CCCCCC3)cc2c1)N1CCCCCC1,"inconclusive: 29.1 µM [falling, single point]",
